Source: PubChem BioAssay AID330 (DTP/NCI, 2004)
The list is a part of this screen's results and no random one: it gathers tests that were run many times, whatever their T/C, doses with no T/C, and many T/C values between a quarter and a half above the control. Other doses and runs of a compound stand elsewhere. T/C gives the treated animals as a percentage of the vehicle group. Some doses have a count of surviving animals in place of a T/C: the source holds a T/C of zero for them, seemingly a mark for toxic or unscored doses. Some doses without a T/C left all or most animals alive at the check, yet need not have been tolerated: survival well below the control is almost never listed, so the zero probably covers shortened survival too. Counts of survivors are from the toxicity check (mostly the fifth day) where no day follows; animals may have died later. Schedules are NCI's codes, taken here to give the interval after Q, in days (D) or hours (H), and the number of doses after X. Some doses were run more than once; their values stand side by side, smallest first. For survival time, this PubChem deposit counts one and a half times the control or more as active, and values a quarter to a half above the control carry no call in these data; other NCI protocols may use other cut-offs. Some T/C values are followed by the survivors on the day toxicity was checked, most often the fifth; where none is given, no animal had died by that day.

Test system: P388 leukemia ip, CD2F1 mice, survival T/C
Assay: NCI In Vivo Anticancer Drug Screen. Data for tumor model P388 Leukemia (intraperitoneal) in CD2F1 (CDF1) mice
Conditions: T/C endpoint: median survival time, higher T/C = longer survival
[1] = dose: 100.0 mg/kg/injection, schedule: Q01DX005 (ip), vehicle: saline with Tween-80
[2] = dose: 200.0 mg/kg/injection, schedule: Q01DX005 (ip), vehicle: saline with Tween-80
[3] = dose: 240.0 mg/kg/injection, schedule: Q01DX005 (ip), vehicle: saline with Tween-80
[4] = dose: 50.0 mg/kg/injection, schedule: Q01DX005 (ip), vehicle: Klucel (hydroxypropylcellulose) (HPC)
[5] = dose: 100.0 mg/kg/injection, schedule: Q01DX005 (ip), vehicle: Klucel (hydroxypropylcellulose) (HPC)
[6] = dose: 200.0 mg/kg/injection, schedule: Q01DX005 (ip), vehicle: Klucel (hydroxypropylcellulose) (HPC)
[7] = dose: 200.0 mg/kg/injection, schedule: Q04DX003 (ip), vehicle: saline with Tween-80
[8] = dose: 400.0 mg/kg/injection, schedule: Q04DX003 (ip), vehicle: saline with Tween-80
[9] = dose: 6.25 mg/kg/injection, schedule: Q01DX009 (ip), vehicle: saline with Tween-80
[10] = dose: 12.5 mg/kg/injection, schedule: Q01DX009 (ip), vehicle: saline with Tween-80
[11] = dose: 200.0 mg/kg/injection, schedule: Q01DX009 (ip), vehicle: saline

## N#Cc1ccc(OCCCCOc2ccc(C#N)cc2)cc1
dose: 50.0 mg/kg/injection, schedule: Q01DX005 (ip), vehicle: saline with Tween-80
  survivor count: 6 of 6
[1]
  survivor count: 6 of 6
[2]
  survivor count: 6 of 6

## CN(C)CCOC(=O)Nc1cc(Cl)cc(Cl)c1
[3]
  survivor count: 2 of 6

## CCN(CC)CCNc1cccc2c(C)cc(=O)[nH]c12
[2]
  survivor count: 3 of 5

## CCCCN=Cc1ccccc1O.CCCCN=Cc1ccccc1O.[Zn]
dose: 200.0 mg/kg/injection, schedule: Q01DX009 (ip), vehicle: Klucel (hydroxypropylcellulose) (HPC)
  survivor count: 0 of 6

## COc1cc(O)c2c(c1)C(=O)c1cc3c(c(O)c1C2=O)C(O)C(OC)C(C)(O)C3=O (stereo unspecified)
dose: 25.0 mg/kg/injection, schedule: Q01DX009 (ip), vehicle: Klucel (hydroxypropylcellulose) (HPC)
  survivor count: 6 of 6
dose: 50.0 mg/kg/injection, schedule: Q01DX009 (ip), vehicle: Klucel (hydroxypropylcellulose) (HPC)
  survivor count: 5 of 6

## COc1cccc(CCl)c1
dose: 50.0 mg/kg/injection, schedule: Q01DX009 (ip), vehicle: saline with Tween-80
  T/C: 125 and 131 % of control

## Cc1cc(N/N=C/c2ccccn2)nc2ccccc12
[4]
  T/C: 129 and 133 % of control
[5]
  survivor count: 2 of 6 and 6 of 6
[6]
  survivor count: 0 of 6

## CC/C(C)=C1\OC(=O)C(C)C(O)C(Cc2cccnc2)NC(=O)C(NC(=O)c2ncccc2O)C(C)OC1=O (stereo unspecified)
dose: 75.0 mg/kg/injection, schedule: Q01DX009 (ip), vehicle: saline with Tween-80
  survivor count: 6 of 6

## S=C(N\N=C/C(/C=C/c1ccccc1)=N\NC(=S)Nc1ccc(Cl)cc1)Nc1ccc(Cl)cc1
dose: 100.0 mg/kg/injection, schedule: Q01DX001 (ip), vehicle: Klucel (hydroxypropylcellulose) (HPC)
  survivor count: 6 of 6
dose: 200.0 mg/kg/injection, schedule: Q01DX001 (ip), vehicle: Klucel (hydroxypropylcellulose) (HPC)
  survivor count: 6 of 6

## Cc1cccn2c(N=O)cnc12
[7]
  survivor count: 2 of 6
[8]
  survivor count: 0 of 6

## Cc1cc(C)cc(C(=O)NC(c2ccncc2)C(NC(=O)c2cc(C)cc(C)c2)c2ccncc2)c1 (stereo unspecified)
[1]
  survivor count: 6 of 6
[2]
  survivor count: 6 of 6

## O=C1CC2(C(=O)N1CN1CCOCC1)c1ccccc1-c1ccccc12
dose: 200.0 mg/kg/injection, schedule: Q04DX002 (ip), vehicle: Klucel (hydroxypropylcellulose) (HPC)
  T/C: 137 % of control
dose: 400.0 mg/kg/injection, schedule: Q04DX002 (ip), vehicle: Klucel (hydroxypropylcellulose) (HPC)
  T/C: 136 and 137 % of control [5 of 6 alive]

## CC(C)(C)C1CC[N+](=C(O[B-](F)(F)F)c2ccccc2)CC1 (stereo unspecified)
[3]
  survivor count: 0 of 6

## C1CCC2(CC1)CSC2
dose: 100.0 mg/kg/injection, schedule: Q01DX001 (ip), vehicle: saline with Tween-80
  survivor count: 0 of 6
dose: 200.0 mg/kg/injection, schedule: Q01DX001 (ip), vehicle: saline with Tween-80
  survivor count: 0 of 6
dose: 400.0 mg/kg/injection, schedule: Q01DX001 (ip), vehicle: saline with Tween-80
  survivor count: 0 of 6

## CCCNC(=O)ON1C(=O)C2C3C=CC(C3)C2C1=O (stereo unspecified)
[4]
  survivor count: 5 of 5
[5]
  survivor count: 3 of 4
[6]
  survivor count: 4 of 5

## O=C1CN(CO)C(=O)N1CO
[5]
  T/C: 131 % of control
[6]
  T/C: 128 and 135 % of control

## C#C/C=C/CC1O[C@H](/C=C/C)C/C=C\CC1Cl (stereo partly specified)
dose: 125.0 mg/kg/injection, schedule: Q01DX005 (ip), vehicle: Klucel (hydroxypropylcellulose) (HPC)
  survivor count: 4 of 5

## COc1ccc(-c2cc(-c3ccc(OC)cc3OC)[n+](C)c(-c3ccc(OC)cc3OC)c2)cc1
dose: 3.12 mg/kg/injection, schedule: Q01DX009 (ip), vehicle: saline with Tween-80
  survivor count: 3 of 6 and 6 of 6
[9]
  survivor count: 3 of 6
[10]
  survivor count: 0 of 6

## COC(/C=N/OC(=O)c1ccccc1)c1ccccc1 (stereo unspecified)
dose: 50.0 mg/kg/injection, schedule: Q04DX003 (ip), vehicle: saline with Tween-80
  survivor count: 6 of 6
dose: 100.0 mg/kg/injection, schedule: Q04DX003 (ip), vehicle: saline with Tween-80
  survivor count: 3 of 6 and 4 of 6
[7]
  survivor count: 0 of 6 and 1 of 6
[8]
  survivor count: 0 of 6 and 1 of 6

## Nc1nc(N)c2nc(Sc3ccc(F)cc3)c(N)nc2n1
[6]
  survivor count: 6 of 6
dose: 400.0 mg/kg/injection, schedule: Q01DX005 (ip), vehicle: Klucel (hydroxypropylcellulose) (HPC)
  survivor count: 3 of 6

## Nc1ccc(-c2nc(N)c3[nH]cnc3n2)cc1
dose: 200.0 mg/kg/injection, schedule: Q01DX005 (ip), vehicle: suspension in saline
  survivor count: 0 of 5

## c1ccc([P+](c2ccccc2)(c2ccccc2)c2ccccc2)cc1
dose: 5.0 mg/kg/injection, schedule: Q04DX003 (ip), vehicle: saline
  T/C: 136 and 140 % of control
dose: 7.5 mg/kg/injection, schedule: Q04DX003 (ip), vehicle: saline
  T/C: 147 % of control
dose: 10.0 mg/kg/injection, schedule: Q04DX003 (ip), vehicle: saline
  survivor count: 6 of 6

## C[N+]1=C(/C=C/Nc2cccc(N/C=C/C3=[N+](C)c4ccccc4C3(C)C)c2)C(C)(C)c2ccccc21
[5]
  survivor count: 3 of 6
[6]
  survivor count: 1 of 6

## O=S(=O)(c1cnccc1N1CCN(CCO)CC1)N1CCCCC1
[11]
  survivor count: 3 of 6

## O=C1CSC(=O)N1c1cccc(Cl)c1
dose: 1.56 mg/kg/injection, schedule: Q01DX009 (ip), vehicle: saline
  survivor count: 6 of 6
dose: 3.12 mg/kg/injection, schedule: Q01DX009 (ip), vehicle: saline
  survivor count: 5 of 6
dose: 6.25 mg/kg/injection, schedule: Q01DX009 (ip), vehicle: saline
  survivor count: 6 of 6
dose: 12.5 mg/kg/injection, schedule: Q01DX009 (ip), vehicle: saline
  T/C: 90, 94, 99, 124 % of control
dose: 25.0 mg/kg/injection, schedule: Q01DX009 (ip), vehicle: saline
  survivor count: 6 of 6
dose: 100.0 mg/kg/injection, schedule: Q01DX009 (ip), vehicle: saline with Tween-80
  survivor count: 5 of 6
dose: 200.0 mg/kg/injection, schedule: Q01DX009 (ip), vehicle: saline with Tween-80
  survivor count: 6 of 6

## CN(C)c1ccc(/C=C/C(=O)c2ccc(Nc3ccnc4cc(Cl)ccc34)cc2)cc1
dose: 100.0 mg/kg/injection, schedule: Q04DX002 (ip), vehicle: saline with Tween-80
  survivor count: 6 of 6
dose: 200.0 mg/kg/injection, schedule: Q04DX002 (ip), vehicle: saline with Tween-80
  survivor count: 6 of 6

## CCOC(=O)/C(=N\N=P(N(C)C)(N(C)C)N(C)C)[As](C)C
[11]
  survivor count: 0 of 6

## c1nc(N2CCOCC2)c2[nH]cnc2n1
[5]
  survivor count: 6 of 6

## CN1C2C=C(c3ccc(Cl)cc3)CC1CC2 (stereo unspecified)
[4]
  survivor count: 1 of 6
dose: 50.0 mg/kg/injection, schedule: Q01DX005 (ip), vehicle: saline
  survivor count: 1 of 6
[5]
  survivor count: 0 of 6
dose: 100.0 mg/kg/injection, schedule: Q01DX005 (ip), vehicle: saline
  survivor count: 0 of 6
[6]
  survivor count: 0 of 6
dose: 200.0 mg/kg/injection, schedule: Q01DX005 (ip), vehicle: saline
  survivor count: 0 of 6

## COc1cccnc1/C=N/NC(N)=S
dose: 3.13 mg/kg/injection, schedule: Q01DX009 (ip), vehicle: saline with Tween-80
  T/C: 130 % of control
[9]
  T/C: 136 and 142 % of control
[10]
  T/C: 145 % of control
  survivor count: 0 of 6
dose: 25.0 mg/kg/injection, schedule: Q01DX009 (ip), vehicle: saline with Tween-80
  survivor count: 0 of 6 and 2 of 6

## Cc1cc2nc3ccc(=[N+](C)C)cc-3sc2cc1N
dose: 200.0 mg/kg/injection, schedule: Q04DX003 (ip), vehicle: saline
  survivor count: 3 of 6

## O=c1cc[nH]cc1[N+](=O)[O-]
dose: 400.0 mg/kg/injection, schedule: Q01DX009 (ip), vehicle: saline
  survivor count: 0 of 6 and 3 of 6
